# Record: PubChem BioAssay AID504786 (Drosophila RNAi Screening Center, 2011)
# Screen: 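Positive regulators of HIF-driven reporter output in Drosophila cells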 (primary screen)
# Cell system: Drosophila S2 cells with a stable HIF luciferase reporter
# Knock-down reagent: long dsRNA against Drosophila genes, about 0.2 µg dsRNA per well of a 384-well plate
# Timing: three days of knock-down, then 20 h of DFO before reading
# Conditions: desferrioxamine (DFO) at 100 µM, an iron chelator that mimics hypoxia, for 20 h
# Measured: 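HIF reporter luminescence in cells given 100 µM DFO for 20 h, using the mouse ldh-a hypoxia-response element, scored as per-plate z-scores; higher means greater loss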
# Reading the numbers: z-score: higher = stronger loss of HIF reporter signal
# The deposit covers about 21,000 reagents; shown is a random part of those that have a named target and a result. 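Primary screen; positive scores mean lost reporter signal, so the sign may be inverted from the usual convention.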 The numbers tell different reagents against one gene apart. Names joined by + are all predicted targets of the reagent.
predicted target,reagent no.,"z-score, replicate 1","z-score, replicate 2","z-score, replicate 3","z-score, replicate 4"
mdlc,1,-0.1,0.3,,
CG7789,1,-0.3,-0.7,,
CG13202,1,-0.2,-0.8,,
Rbf2,1,-0.2,-0.5,,
CG9609,1,0.2,0.2,,
List,1,-0.3,-0.3,,
CG13258,1,-0.3,-0.4,,
CG43902,1,0.2,-0.7,,
Elo68beta,1,-0.4,-0.5,,
Hsc70-4,1,5.9,5.9,,
cGlr1,1,-0.1,0.1,,
Klp3A,1,-0.2,-0.5,,
Pgd,1,-0.3,-0.2,,
Ide,1,-0.3,-0.4,,
Uba4,1,0,-0.1,,
slgA,1,-0.4,-0.5,,
Septin4,1,-0.2,0.3,,
Dcps,1,-0.3,-0.4,,
CG32199,1,-0.2,-0.4,,
Root,1,-0.4,-0.3,,
ND-MNLL,1,0.1,-0.3,,
Or24a,1,0,-0.3,,
Edem2,1,-0.1,-0.6,,
CG32249,1,-0.3,0,-0.4,-0.4
CG32249,2,-0.4,-0.3,,
CG14957,1,-0.5,-0.4,,
fd96Ca,1,-0.1,-0.5,,
CG8646,1,-0.3,-0.1,,
Usp10,1,-0.2,0.2,,
Usp10,2,-0.2,-0.4,,
mRpL18,1,1.8,0.7,,
CG33543,1,-0.1,-0.3,,
CG33543,2,0.1,-0.1,,
CG12268,1,-0.1,0,,
Sfmbt,1,-0.5,-1.1,,
Hsp70Aa + Hsp70Ab,1,0.6,0.9,,
Alp7,1,0.5,1.1,,
CG16781,1,-0.2,0.5,,
Shal,1,-0.4,-1.6,,
Shal,2,-0.3,-0.4,,
alpha-Est4aPsi,1,-0.2,-0.4,,
CG1703,1,0.2,0.8,,
alpha-Spec,1,-0.3,-0.5,,
HDAC3,1,0.1,1,,
Rpn11,1,7.2,6.6,,
Sema2b,1,-0.9,-0.4,,
Sema2b,2,-0.7,-0.2,,
Sema2b,3,-0.2,-0.7,,
SmydA-4,1,-0.3,0.1,0.1,0.2
CG10395,1,-0.2,-0.3,,
CG17931 + CG42446,1,-0.3,-0.3,,
Cog2,1,-0.7,0.1,,
CG14069,1,-0.2,-0.6,,
Cpr65Eb,1,-0.3,-0.5,,
CG10950,1,-0.3,-0.1,,
kuz,1,-0.3,0.2,,
CG3213,1,1.8,-0.4,,
CG5577,1,-0.2,-0.5,,
Lap1,1,-0.2,-0.2,,
Pfrx,1,0,0,,
Pfrx,2,0.1,0,,
CG7557,1,-0.4,-0.7,,
Tfb4,1,-0.2,-0.7,,
CG13601,1,-0.1,0.9,,
Tdh,1,0.1,0.2,,
CG30492 (retired record) + M7BP,1,-0.2,-0.1,,
CG30492 (retired record) + M7BP,2,-0.4,-0.4,,
CG30492 (retired record) + M7BP,3,0,-0.2,,
CG30492 (retired record) + M7BP,4,-0.3,-0.4,,
CG30492 (retired record) + M7BP,5,-0.3,-0.4,,
Pif1A,1,-0.4,-0.2,,
Pif1A,2,0.1,-0.3,,
pinta,1,-0.3,-0.3,,
CG31036,1,-0.3,-0.3,,
CG31036,2,0,-0.8,,
yellow-g2,1,-0.2,-0.4,,
Trc8,1,-0.3,-0.3,,
CG15152,1,-0.2,0.3,,
CG15515,1,-0.2,-0.6,,
otk,1,-0.3,-0.5,,
Cyp4d20,1,-0.3,0.1,,
CG3713,1,-0.3,-0.3,,
side-III,1,-0.4,-0.9,,
side-III,2,3.1,1.3,,
side-III,3,-0.2,-0.2,,
CG17738,1,-0.2,-0.6,,
yl,1,-0.4,-0.7,,
CG5687,1,0.1,0.1,,
CG31206,1,-0.6,-0.3,,
CG3626,1,-0.2,-0.4,,
CG12985,1,-0.4,-0.8,,
Snp,1,-0.2,-0.3,,
CG8924,1,0.2,-0.3,,
Sf3a1,1,5.4,3.7,,
l(2)k01209,1,0.1,0,,
CG5906,1,-0.2,0.2,,
CG6153,1,-0.4,-0.3,,
CG6763,1,-0.4,-0.1,,
GstE8,1,-0.3,-0.7,,
HERC2,1,-0.3,-0.1,,
CG31638,1,0,-0.2,,
CG31638,2,-0.1,-0.3,,
Lnk,1,-0.3,0,,
Coq8,1,-0.3,-1.3,,
CG12374,1,-0.3,-0.6,,
ems,1,-0.4,-0.5,,

10 entries from above in another layout:
{"predicted target":"Usp10","reagent no.":2,"z-score, replicate 1":-0.2,"z-score, replicate 2":-0.4}
{"predicted target":"mRpL18","reagent no.":1,"z-score, replicate 1":1.8,"z-score, replicate 2":0.7}
{"predicted target":"CG33543","reagent no.":1,"z-score, replicate 1":-0.1,"z-score, replicate 2":-0.3}
{"predicted target":"CG33543","reagent no.":2,"z-score, replicate 1":0.1,"z-score, replicate 2":-0.1}
{"predicted target":"CG12268","reagent no.":1,"z-score, replicate 1":-0.1,"z-score, replicate 2":0}
{"predicted target":"Sfmbt","reagent no.":1,"z-score, replicate 1":-0.5,"z-score, replicate 2":-1.1}
{"predicted target":"Hsp70Aa + Hsp70Ab","reagent no.":1,"z-score, replicate 1":0.6,"z-score, replicate 2":0.9}
{"predicted target":"Alp7","reagent no.":1,"z-score, replicate 1":0.5,"z-score, replicate 2":1.1}
{"predicted target":"CG16781","reagent no.":1,"z-score, replicate 1":-0.2,"z-score, replicate 2":0.5}
{"predicted target":"Shal","reagent no.":1,"z-score, replicate 1":-0.4,"z-score, replicate 2":-1.6}
